Laboratory results reported in article PMC7057099.
Numbering of substitutions follows the chain as printed. Names may count otherwise. No constants are given. Whether binding was seen depends on the method and setting. In cells and extracts the contact can be indirect. Some binding calls cover weakened binding; strength is not graded here. Sequences can lack the tags named with a protein.

Protein sequences, listed by entry. Tags and fused reporters are not part of them. Lines headed by an entry give the natural chain unless they say otherwise; changes in a name come on top.
UniProt P43694: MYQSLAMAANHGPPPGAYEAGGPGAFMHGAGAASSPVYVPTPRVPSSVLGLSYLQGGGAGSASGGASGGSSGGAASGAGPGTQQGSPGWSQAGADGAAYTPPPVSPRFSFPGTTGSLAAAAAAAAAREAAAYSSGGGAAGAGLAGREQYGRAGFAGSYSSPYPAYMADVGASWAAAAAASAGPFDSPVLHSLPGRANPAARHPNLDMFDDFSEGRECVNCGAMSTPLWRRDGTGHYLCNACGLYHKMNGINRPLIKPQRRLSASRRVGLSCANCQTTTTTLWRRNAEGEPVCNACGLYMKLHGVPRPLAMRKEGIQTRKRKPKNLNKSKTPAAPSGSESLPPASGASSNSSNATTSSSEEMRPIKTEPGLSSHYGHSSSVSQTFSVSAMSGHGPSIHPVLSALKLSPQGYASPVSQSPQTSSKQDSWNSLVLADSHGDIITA

T1: Friend of GATA 2 protein (FOG2, ZFPM2), wild-type, Myc-DDK-tagged (human) (UniProt Q8WW38)
T1 sequence: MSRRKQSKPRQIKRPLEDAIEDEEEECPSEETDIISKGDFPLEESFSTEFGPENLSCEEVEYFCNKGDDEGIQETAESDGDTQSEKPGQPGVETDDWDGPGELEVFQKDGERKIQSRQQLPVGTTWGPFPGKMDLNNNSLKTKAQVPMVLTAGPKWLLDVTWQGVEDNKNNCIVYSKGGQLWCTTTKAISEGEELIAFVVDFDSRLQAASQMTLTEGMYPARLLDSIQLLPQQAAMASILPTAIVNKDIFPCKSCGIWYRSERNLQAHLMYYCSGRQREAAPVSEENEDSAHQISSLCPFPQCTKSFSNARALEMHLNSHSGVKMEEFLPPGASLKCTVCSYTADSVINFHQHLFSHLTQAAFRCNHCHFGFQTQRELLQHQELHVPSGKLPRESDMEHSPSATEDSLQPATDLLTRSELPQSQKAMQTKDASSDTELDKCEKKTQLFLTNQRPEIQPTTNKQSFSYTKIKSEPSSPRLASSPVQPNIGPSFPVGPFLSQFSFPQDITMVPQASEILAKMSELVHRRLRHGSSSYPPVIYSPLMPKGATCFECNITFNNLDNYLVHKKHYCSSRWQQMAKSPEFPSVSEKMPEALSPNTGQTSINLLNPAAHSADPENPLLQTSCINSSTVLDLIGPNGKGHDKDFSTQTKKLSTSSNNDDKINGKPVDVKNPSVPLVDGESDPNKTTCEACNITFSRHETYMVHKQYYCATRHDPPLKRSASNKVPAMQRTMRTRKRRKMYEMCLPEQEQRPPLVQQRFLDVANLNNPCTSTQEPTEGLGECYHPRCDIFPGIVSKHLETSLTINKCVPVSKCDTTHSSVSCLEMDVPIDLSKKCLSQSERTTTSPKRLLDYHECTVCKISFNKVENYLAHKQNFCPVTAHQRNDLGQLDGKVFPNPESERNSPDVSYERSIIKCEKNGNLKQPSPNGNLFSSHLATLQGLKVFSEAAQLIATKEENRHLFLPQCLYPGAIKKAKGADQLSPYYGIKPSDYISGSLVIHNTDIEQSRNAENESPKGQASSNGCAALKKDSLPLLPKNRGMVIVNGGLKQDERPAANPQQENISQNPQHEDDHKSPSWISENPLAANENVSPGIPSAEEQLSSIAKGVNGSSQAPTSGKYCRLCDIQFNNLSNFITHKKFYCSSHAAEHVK

B1: ZFPM2 (FOG2) p.L607del variant, Myc-DDK-tagged (protein, UniProt Q8WW38-1 1-1151)
chain: MSRRKQSKPRQIKRPLEDAIEDEEEECPSEETDIISKGDFPLEESFSTEFGPENLSCEEVEYFCNKGDDEGIQETAESDGDTQSEKPGQPGVETDDWDGPGELEVFQKDGERKIQSRQQLPVGTTWGPFPGKMDLNNNSLKTKAQVPMVLTAGPKWLLDVTWQGVEDNKNNCIVYSKGGQLWCTTTKAISEGEELIAFVVDFDSRLQAASQMTLTEGMYPARLLDSIQLLPQQAAMASILPTAIVNKDIFPCKSCGIWYRSERNLQAHLMYYCSGRQREAAPVSEENEDSAHQISSLCPFPQCTKSFSNARALEMHLNSHSGVKMEEFLPPGASLKCTVCSYTADSVINFHQHLFSHLTQAAFRCNHCHFGFQTQRELLQHQELHVPSGKLPRESDMEHSPSATEDSLQPATDLLTRSELPQSQKAMQTKDASSDTELDKCEKKTQLFLTNQRPEIQPTTNKQSFSYTKIKSEPSSPRLASSPVQPNIGPSFPVGPFLSQFSFPQDITMVPQASEILAKMSELVHRRLRHGSSSYPPVIYSPLMPKGATCFECNITFNNLDNYLVHKKHYCSSRWQQMAKSPEFPSVSEKMPEALSPNTGQTSINLNPAAHSADPENPLLQTSCINSSTVLDLIGPNGKGHDKDFSTQTKKLSTSSNNDDKINGKPVDVKNPSVPLVDGESDPNKTTCEACNITFSRHETYMVHKQYYCATRHDPPLKRSASNKVPAMQRTMRTRKRRKMYEMCLPEQEQRPPLVQQRFLDVANLNNPCTSTQEPTEGLGECYHPRCDIFPGIVSKHLETSLTINKCVPVSKCDTTHSSVSCLEMDVPIDLSKKCLSQSERTTTSPKRLLDYHECTVCKISFNKVENYLAHKQNFCPVTAHQRNDLGQLDGKVFPNPESERNSPDVSYERSIIKCEKNGNLKQPSPNGNLFSSHLATLQGLKVFSEAAQLIATKEENRHLFLPQCLYPGAIKKAKGADQLSPYYGIKPSDYISGSLVIHNTDIEQSRNAENESPKGQASSNGCAALKKDSLPLLPKNRGMVIVNGGLKQDERPAANPQQENISQNPQHEDDHKSPSWISENPLAANENVSPGIPSAEEQLSSIAKGVNGSSQAPTSGKYCRLCDIQFNNLSNFITHKKFYCSSHAAEHVK
B2: ZFPM2 (FOG2) p.V538I variant, Myc-DDK-tagged (protein, UniProt Q8WW38-1 1-1151)
chain: T1 sequence with V538I
B3: Friend of GATA 2 protein (FOG2, ZFPM2), wild-type, Myc-DDK-tagged (protein, UniProt Q8WW38-1 1-1151)
chain: T1 sequence
B4: ZFPM2 (FOG2) p.E30G variant, Myc-DDK-tagged (protein, UniProt Q8WW38-1 1-1151)
chain: T1 sequence with E30G
B5: ZFPM2 (FOG2) p.M703L variant, Myc-DDK-tagged (protein, UniProt Q8WW38-1 1-1151)
chain: T1 sequence with M703L
B6: ZFPM2 (FOG2) p.S210T variant, Myc-DDK-tagged (protein, UniProt Q8WW38-1 1-1151)
chain: T1 sequence with S210T
B7: ZFPM2 (FOG2) p.K590N variant, Myc-DDK-tagged (protein, UniProt Q8WW38-1 1-1151)
chain: T1 sequence with K590N
B8: ZFPM2 (FOG2) p.L335V variant, Myc-DDK-tagged (protein, UniProt Q8WW38-1 1-1151)
chain: T1 sequence with L335V
B9: ZFPM2 (FOG2) p.E419K variant, Myc-DDK-tagged (protein, UniProt Q8WW38-1 1-1151)
chain: T1 sequence with E419K
B10: ZFPM2 (FOG2) p.M544I variant, Myc-DDK-tagged (protein, UniProt Q8WW38-1 1-1151)
chain: T1 sequence with M544I
B11: ZFPM2 (FOG2) p.D98N variant, Myc-DDK-tagged (protein, UniProt Q8WW38-1 1-1151)
chain: T1 sequence with D98N

Biological target: T1, Friend of GATA 2 protein (FOG2, ZFPM2), wild-type, Myc-DDK-tagged (human)
Test: co-IP; HEK293-T cells co-transfected with GATA4-HA (wild-type or variant) and ZFPM2-Myc-DDK; Pierce IP lysis buffer; IP with rabbit anti-FLAG overnight at 4°C, protein A/G plus agarose, PBS washes; Western blot of the IP with anti-GATA4

| binding | Molecule |
| --- | --- |
| binds weakly | GATA4 p.G221R variant, HA-tagged (from UniProt P43694-1 1-442) |
| binds | GATA4 p.P407Q variant, HA-tagged (from UniProt P43694-1 1-442) |
| binds | GATA-binding protein 4 (GATA4), wild-type, HA-tagged (from UniProt P43694-1 1-442) |
| binds | GATA4 p.A346V variant, HA-tagged (from UniProt P43694-1 1-442) |

Biological target: GATA-binding protein 4 (GATA4), wild-type, HA-tagged (human) (UniProt P43694)
Test: co-IP; HEK293-T cells co-transfected with wild-type GATA4-HA and ZFPM2-Myc-DDK (wild-type or variant); Pierce IP lysis buffer; IP with rabbit anti-HA overnight at 4°C, protein A/G plus agarose, PBS washes; Western blot of the IP with anti-ZFPM2

| binding | Molecule |
| --- | --- |
| binds | B1 |
| binds | B2 |
| binds | B3 |
| binds | B4 |
| binds | B5 |
| binds | B6 |
| binds | B7 |
| binds | B8 |
| binds | B9 |
| binds | B10 |
| binds | B11 |
